# Primary screen of a compound library

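Viability assay of Plasmodium falciparum sporozoites; the read-out is not stated. The concentration is filed as 10 mM, unlikely as a test dose, so the dose is not known. Higher reads as lower viability (inferred: compounds with an IC50 in retests scored well above the rest). Strong results were mostly tested again. Of about 34,000 compounds tested this way, about 280 (0.84%) reached 50% or more in at least one test.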

The filed quantity is “Percent Effect” (%). How 0% and 100% were set is not recorded. Most values in the screen are low, and negative values occur. Compounds were drawn at random from those tested, without regard to their results. Two or more numbers in one place are separate tests of the same structure; such repeats can differ widely.

compound,effect
CC(=O)N1CC(=O)N(c2ccccc2)CC12CCN(CC1CC1)C2.O=C(O)C(F)(F)F (configuration not stated),-8.389
COc1ccc(OCCNCCn2cccn2)cc1,-12.89
O=C1CC2(CCN(CCO)CC2)CN1Cc1cc(F)cc(F)c1,4.703
[H][C@@]12CCN(C(=O)c3cc(C)on3)C[C@@]1([H])O[C@@H](c1ccncn1)C2,-11.92
CCC(O)CN1CCN(C(=O)c2cccc(CC#N)c2)CC1 (configuration not stated),7.537
COCC1CC2(CCN(C(=O)c3occc3C)CC2)CO1 (configuration not stated),0.3352
CC(=O)c1cccc(C(=O)N2C[C@@H](CN3CCCCCC3)[C@@H](CO)C2)c1,-20.14 and -3.155
O=C(O)C(F)(F)F.[H][C@@]12CCN(c3cc(OC)ncn3)[C@]1([H])CC[C@H](C(=O)NC1CCCC1)O2,-3.879
OCC1CCCN1c1cc(NCc2cccnc2)ncn1 (configuration not stated),-3.199
[H][C@]12C[C@@H](CN(C)C)N(C)[C@@]1([H])CCN(C(=O)Cc1cccs1)C2,-7.04
Cc1ccc(CN2CCC3(C2)C(=O)N(CC2CC2)c2ccccc23)s1.O=C(O)C(F)(F)F (configuration not stated),-4.029
Cc1nccn1C1CCCN(C(=O)c2cccc3c2OCO3)C1 (configuration not stated),1.07
Cc1ccc(CNC(=O)Nc2nccs2)cn1,-2.625
O=C(c1cccnc1)N1CCCC1c1nc(O)cc(-c2ccccn2)n1 (configuration not stated),3.198
CCN1CCOC(CNCc2ccccc2OCc2cccnc2)C1 (configuration not stated),6.524
Cc1cc(-c2nnc(SCC(=O)O)n2C(C)c2ccccc2)nn1C (configuration not stated),-18.81
CC(NC(=O)NCCCN1CCc2ccccc2C1)c1nncn1C (configuration not stated),17.77 and -25.45 and -9.566
CCN1CC(=O)NCC12CCN(C(=O)c1ccco1)C2.O=C(O)C(F)(F)F (configuration not stated),4.619
Cc1cnc(CN2CCCC2c2noc(C(C)C)n2)cn1 (configuration not stated),26.36
Cn1cccc1C(=O)N1CCC2(CC1)COC(COc1ccccn1)C2.O=C(O)C(F)(F)F (configuration not stated),-17.52
CC(C)n1cc(S(=O)(=O)N2CCCCC2)cn1,-15.1 and 2.412 and -32.89
Cc1cc(=O)n2ncnc2n1CC(O)c1ccccc1Cl (configuration not stated),10.48
[H][C@]12CC[C@](O)(CC1)C(COC)N2C(=O)Nc1ccccc1 (some centres not stated),-44.69
COc1ccccc1CN(Cc1nc(C)no1)C1CC1,0.1791
CC(C)c1nc(CN2CCCC2Cn2cncn2)no1 (configuration not stated),15.79
Fc1cnc(N2CCn3c(CN4CCCC4)nnc3C2)nc1.O=C(O)C(F)(F)F,-9.769
O=C1CC(c2cccc(O)c2)c2sc(C(=O)O)c(-c3ccccc3)c2N1 (configuration not stated),8.836
O=C(O)C(F)(F)F.O=C(O)C(F)(F)F.O=C(O)C(F)(F)F.c1cncc(OCc2n[nH]c3c2CN(Cc2cccs2)C3)c1,2.981
O=C1NC(C(=O)NCc2cccnc2Oc2ccc(F)cc2F)CO1 (configuration not stated),-4.297
CC(C)c1nnc2n1CCN(C(=O)c1cccc(OCC(N)=O)c1)C2,-0.8919
CC(C)CN1CCC2(CC1)C(=O)Nc1ccc(C(=O)N(C)C)cc12.O=C(O)C(F)(F)F,-5.536
CN(c1ccc(C(C)(C)C)cc1)S(=O)(=O)c1cc(C(=O)O)cs1,-59.04
COc1cc(Cl)ccc1C(=O)NCc1n[nH]c(C)n1,-7.558
O=C(CN1CCOC(CNc2cccnn2)C1)NCc1ccccn1 (configuration not stated),15.14
NC(=O)C(CNC(=O)Cc1ccc(F)cc1)Cc1ccc(F)cc1 (configuration not stated),-4.848
CCCn1cc(S(=O)(=O)N(C)Cc2nonc2C)c(C)n1,7.879
COCc1noc(-c2ccc(N(C)Cc3nccs3)nc2)n1,-7.456
Br.Cc1ccc(N(CC(=O)c2ccc(Br)cc2)C2=NCCCCC2)cc1,-2.368
Cc1noc(C(C)C)c1C(=O)NCc1cc(F)cc(F)c1,-2.126
CS(=O)(=O)N1CCCC(C(=O)Nc2cnn(Cc3ccc(Cl)cc3)c2)C1 (configuration not stated),-4.88
CC(C)(C)C(=O)NCCC(=O)N1CCC(Nc2cccnn2)CC1,-2.244
Cc1ccccc1N1CC2(CCN(Cc3nccn3C)C2)CC1=O.O=C(O)C(F)(F)F (configuration not stated),0.08681
CCc1nccn1CC1CCCN1S(=O)(=O)Cc1ccccc1 (configuration not stated),3.419
Cc1cnc(-c2nc(O)c3c(n2)CN(C(=O)C2CCCO2)CC3)cn1 (configuration not stated),-0.1249
Cc1nc(C)c(CNC(=O)NC(c2nnc3n2CCC3)C(C)C)s1 (configuration not stated),-11.05
Cc1occc1C(=O)N1CCC2(CC1)CC(OCc1ccccn1)CO2.O=C(O)C(F)(F)F (configuration not stated),3.866
CCOc1cccc(NS(=O)(=O)c2cc(C(=O)O)cs2)c1,-18.12 and -0.7455 and -6.644
Cc1cc(CN2CCCC(Cn3cncn3)C2)no1 (configuration not stated),-0.9453
Fc1cccc(-c2nc(CN3CCCC3Cn3cncn3)co2)c1 (configuration not stated),6.728
O=C(c1cc[nH]n1)N1CCCC1c1ccccn1 (configuration not stated),5.453
COCC(=O)NC(C)Cc1cccc(OC)c1 (configuration not stated),0.3298
Cn1cnc2c1CCN(Cc1cccc(OCC(N)=O)c1)C2,-3.382
O=C(O)C(F)(F)F.[H][C@@]12COC[C@]1([H])[C@@H](OCC1CCOCC1)CN2Cc1ccsc1,7.706
COC(CNC(=O)NCc1c(C)cc(C)[nH]c1=O)c1ccccc1 (configuration not stated),3.501
[H][C@]12CC[C@]([H])(CN(Cc3cccnc3)C1)N(C(=O)Nc1ccc(F)cc1)C2,-14.99
Cc1ncncc1C(=O)N1CCCC(n2ccnc2C)C1 (configuration not stated),5.461
CCn1cc(CN2CCCN(C(=O)CCSC)CC2)cn1,-2.407
CN1CC(c2ccccc2)CC2(CCN(C(=O)c3ccccc3)CC2)C1 (configuration not stated),-2.315
O=C(O)C(F)(F)F.O=C(O)C(F)(F)F.O=C(c1cnc2n1CCN(Cc1ccccc1)C2)N1CCCC1,-0.4296
CCOCc1cnc2n1CCN(C(=O)c1cccc3c1OCCO3)C2C (configuration not stated),3.207
CO[C@H]1CO[C@@]2(CCCN(C(=O)N3CCCC3)C2)C1,5.592
CCC(=O)N1CC[C@H](O)[C@@H]1Cc1ccccc1,-1.986
COc1cc(C)nc(N2CCN(Cc3nccn3C)CC2)n1,-2.464
Cn1c(CN2CCCC(Cn3cncn3)C2)nc2ccccc21 (configuration not stated),1.519
O=S(=O)(C1CC1)N1CCC2(COCc3cnc(-c4cccnc4)nc32)C1 (configuration not stated),9.968
Cc1c(NC(C)C(C)C)cccc1C(=O)NCc1nnc(C)n1C (configuration not stated),0
Cc1ccccc1C1CCCN1Cc1ccc(S(=O)(=O)N(C)C)o1 (configuration not stated),7.217
Cc1ccc(CCCC(=O)N2CCN(C3CCCN(C)C3)CC2)s1 (configuration not stated),4.995
Cc1cc(-c2cc(N)c(=O)n(CC(=O)NCC3CCCCC3)n2)c(C)o1,3.611
Cc1cc(CN(C)C(=O)c2ccc(F)cc2Br)no1,6.28
CC(C)(C)NCC(=O)N1CCCC(n2ccnc2)C1 (configuration not stated),-6.548
CCCNC(=O)c1c(-n2cnnn2)sc2c1CCC2,-3.495
CS(=O)(=O)Cc1cccc(C(=O)NCC2Cc3ccccc3O2)c1 (configuration not stated),-10.27
Cc1cnc(-c2nc(C3CCCN(Cc4ccccc4C)C3)no2)cn1.Cl (configuration not stated),1.165
CS(=O)(=O)N[C@@H]1CN(Cc2ccc3ccccc3c2)C[C@H]1O,-6.848
COC(=O)CCC(=O)NCc1cccnc1N1CCc2ccccc2C1,-17.37
NS(=O)(=O)c1cccc(CNc2nccc(C(F)(F)F)n2)c1,4.829
Fc1ccc(-c2ccc(CNC3CCc4ncnn4C3)o2)cc1 (configuration not stated),-6.746
Cc1ccc(CN2CCOCC3(CCN(Cc4cccs4)C3)C2)o1.O=C(O)C(F)(F)F.O=C(O)C(F)(F)F (configuration not stated),4.384
Cn1ccnc1CN1CCCN(C(=O)CC(C2CC2)C2CC2)CC1,-2.557

Some entries from above, unchanged:

compound	effect
Fc1cnc(N2CCn3c(CN4CCCC4)nnc3C2)nc1.O=C(O)C(F)(F)F	-9.769
CS(=O)(=O)N[C@@H]1CN(Cc2ccc3ccccc3c2)C[C@H]1O	-6.848
O=C(c1cccnc1)N1CCCC1c1nc(O)cc(-c2ccccn2)n1 (configuration not stated)	3.198
COc1cc(C)nc(N2CCN(Cc3nccn3C)CC2)n1	-2.464
COCC(=O)NC(C)Cc1cccc(OC)c1 (configuration not stated)	0.3298
O=C(O)C(F)(F)F.[H][C@@]12COC[C@]1([H])[C@@H](OCC1CCOCC1)CN2Cc1ccsc1	7.706
Cc1cnc(CN2CCCC2c2noc(C(C)C)n2)cn1 (configuration not stated)	26.36
Cc1cc(CN(C)C(=O)c2ccc(F)cc2Br)no1	6.28
Cn1cccc1C(=O)N1CCC2(CC1)COC(COc1ccccn1)C2.O=C(O)C(F)(F)F (configuration not stated)	-17.52
Cc1ccc(CCCC(=O)N2CCN(C3CCCN(C)C3)CC2)s1 (configuration not stated)	4.995

Source: ChEMBL document CHEMBL3988442, “University of Dundee, Small-Polar-MMV Screening Library” (2021).